In publication PMC12989817:
No constants are given. Whether binding was seen depends on the method and setting. Binding seen in cells or lysates may run through a third protein. Here binding means that the protein was enriched with, or labelled near, the bait; the list need not be complete.

Amino acid sequences for entries named in this document (tags omitted).
UniProt O43707: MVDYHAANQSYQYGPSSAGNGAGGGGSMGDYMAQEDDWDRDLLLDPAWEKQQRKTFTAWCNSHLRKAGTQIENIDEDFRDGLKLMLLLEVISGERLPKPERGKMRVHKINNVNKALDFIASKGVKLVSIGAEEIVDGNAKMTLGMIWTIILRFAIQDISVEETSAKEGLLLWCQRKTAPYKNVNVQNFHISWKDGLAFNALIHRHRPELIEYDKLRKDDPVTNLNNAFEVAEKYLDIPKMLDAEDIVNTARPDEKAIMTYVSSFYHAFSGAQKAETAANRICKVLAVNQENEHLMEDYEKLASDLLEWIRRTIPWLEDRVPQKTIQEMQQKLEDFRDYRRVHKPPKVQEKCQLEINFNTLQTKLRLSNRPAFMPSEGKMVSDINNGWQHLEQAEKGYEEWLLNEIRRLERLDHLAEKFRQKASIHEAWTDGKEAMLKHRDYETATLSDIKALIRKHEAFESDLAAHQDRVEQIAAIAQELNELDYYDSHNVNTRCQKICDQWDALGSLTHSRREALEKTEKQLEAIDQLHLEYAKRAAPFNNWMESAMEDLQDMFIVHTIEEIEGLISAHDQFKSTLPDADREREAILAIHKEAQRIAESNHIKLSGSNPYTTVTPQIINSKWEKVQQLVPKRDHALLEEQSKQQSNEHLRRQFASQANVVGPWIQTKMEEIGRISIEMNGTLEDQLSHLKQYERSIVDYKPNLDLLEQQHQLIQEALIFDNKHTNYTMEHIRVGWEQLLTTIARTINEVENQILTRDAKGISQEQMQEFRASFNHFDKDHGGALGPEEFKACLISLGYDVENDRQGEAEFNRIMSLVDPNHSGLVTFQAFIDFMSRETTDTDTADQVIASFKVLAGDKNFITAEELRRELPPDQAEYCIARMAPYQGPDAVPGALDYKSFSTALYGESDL
UniProt P10415: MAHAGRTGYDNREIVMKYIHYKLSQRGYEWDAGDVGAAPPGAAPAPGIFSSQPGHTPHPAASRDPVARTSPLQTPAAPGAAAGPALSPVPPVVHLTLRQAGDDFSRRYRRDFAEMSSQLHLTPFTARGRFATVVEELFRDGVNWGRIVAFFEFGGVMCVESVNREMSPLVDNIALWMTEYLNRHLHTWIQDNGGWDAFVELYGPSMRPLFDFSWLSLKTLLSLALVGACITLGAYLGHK
UniProt O00571: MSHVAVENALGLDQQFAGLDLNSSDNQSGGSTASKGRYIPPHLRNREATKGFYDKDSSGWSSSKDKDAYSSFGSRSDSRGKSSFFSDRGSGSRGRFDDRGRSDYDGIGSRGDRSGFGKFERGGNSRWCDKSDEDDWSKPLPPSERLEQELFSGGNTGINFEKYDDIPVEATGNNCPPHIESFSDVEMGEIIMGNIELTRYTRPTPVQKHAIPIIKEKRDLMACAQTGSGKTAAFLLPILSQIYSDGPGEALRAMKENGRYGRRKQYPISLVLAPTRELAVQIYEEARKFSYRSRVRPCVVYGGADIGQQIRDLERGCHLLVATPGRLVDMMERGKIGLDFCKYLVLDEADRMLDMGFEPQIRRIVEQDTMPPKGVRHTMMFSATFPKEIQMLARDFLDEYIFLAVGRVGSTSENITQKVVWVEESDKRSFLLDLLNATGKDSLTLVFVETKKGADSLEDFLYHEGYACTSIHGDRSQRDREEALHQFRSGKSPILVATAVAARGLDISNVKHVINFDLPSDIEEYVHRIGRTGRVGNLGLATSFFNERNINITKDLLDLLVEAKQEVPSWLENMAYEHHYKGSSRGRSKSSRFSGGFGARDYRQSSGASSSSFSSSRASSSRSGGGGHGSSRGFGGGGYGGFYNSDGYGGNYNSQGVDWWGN
UniProt O00410: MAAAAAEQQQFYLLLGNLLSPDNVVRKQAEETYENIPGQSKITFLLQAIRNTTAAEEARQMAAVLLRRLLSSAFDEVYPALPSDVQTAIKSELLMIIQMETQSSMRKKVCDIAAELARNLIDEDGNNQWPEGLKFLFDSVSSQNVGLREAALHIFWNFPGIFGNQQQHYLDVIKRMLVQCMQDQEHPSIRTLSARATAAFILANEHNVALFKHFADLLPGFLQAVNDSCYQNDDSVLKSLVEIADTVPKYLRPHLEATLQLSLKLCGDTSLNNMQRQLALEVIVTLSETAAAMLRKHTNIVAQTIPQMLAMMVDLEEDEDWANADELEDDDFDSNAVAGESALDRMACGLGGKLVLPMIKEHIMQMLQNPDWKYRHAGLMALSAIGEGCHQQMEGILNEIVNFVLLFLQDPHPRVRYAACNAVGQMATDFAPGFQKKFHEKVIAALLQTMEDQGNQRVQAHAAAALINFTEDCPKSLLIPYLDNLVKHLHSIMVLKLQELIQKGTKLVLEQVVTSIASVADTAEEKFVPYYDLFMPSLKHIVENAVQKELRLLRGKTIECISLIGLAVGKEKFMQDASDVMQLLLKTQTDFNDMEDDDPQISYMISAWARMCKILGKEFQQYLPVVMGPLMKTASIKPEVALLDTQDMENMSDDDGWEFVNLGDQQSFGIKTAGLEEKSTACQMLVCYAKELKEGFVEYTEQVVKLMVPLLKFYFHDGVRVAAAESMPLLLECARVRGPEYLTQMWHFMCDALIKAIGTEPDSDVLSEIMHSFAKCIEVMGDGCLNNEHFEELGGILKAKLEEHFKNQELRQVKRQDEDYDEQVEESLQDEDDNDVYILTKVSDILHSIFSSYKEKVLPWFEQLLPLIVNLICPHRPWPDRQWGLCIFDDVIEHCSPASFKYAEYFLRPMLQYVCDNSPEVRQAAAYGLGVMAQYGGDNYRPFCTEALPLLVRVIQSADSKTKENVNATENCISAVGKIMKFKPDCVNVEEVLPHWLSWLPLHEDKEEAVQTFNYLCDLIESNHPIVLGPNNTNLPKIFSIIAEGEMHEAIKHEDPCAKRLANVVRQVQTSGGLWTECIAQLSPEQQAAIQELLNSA
UniProt O95251: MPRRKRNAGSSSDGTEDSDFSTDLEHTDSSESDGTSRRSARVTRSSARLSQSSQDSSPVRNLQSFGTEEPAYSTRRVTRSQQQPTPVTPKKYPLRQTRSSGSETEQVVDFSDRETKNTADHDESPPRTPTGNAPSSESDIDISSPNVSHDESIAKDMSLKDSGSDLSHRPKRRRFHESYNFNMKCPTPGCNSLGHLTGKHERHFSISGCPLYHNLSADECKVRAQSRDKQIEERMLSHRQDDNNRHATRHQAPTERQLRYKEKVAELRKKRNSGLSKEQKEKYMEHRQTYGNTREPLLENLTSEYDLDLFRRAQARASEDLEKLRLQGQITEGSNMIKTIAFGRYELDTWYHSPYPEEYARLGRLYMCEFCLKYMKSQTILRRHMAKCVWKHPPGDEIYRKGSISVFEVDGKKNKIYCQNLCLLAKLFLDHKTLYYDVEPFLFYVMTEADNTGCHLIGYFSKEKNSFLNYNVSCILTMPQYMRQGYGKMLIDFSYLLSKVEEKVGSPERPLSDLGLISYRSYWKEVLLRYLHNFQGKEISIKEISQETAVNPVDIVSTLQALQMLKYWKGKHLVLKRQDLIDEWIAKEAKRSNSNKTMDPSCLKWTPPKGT
UniProt O00629: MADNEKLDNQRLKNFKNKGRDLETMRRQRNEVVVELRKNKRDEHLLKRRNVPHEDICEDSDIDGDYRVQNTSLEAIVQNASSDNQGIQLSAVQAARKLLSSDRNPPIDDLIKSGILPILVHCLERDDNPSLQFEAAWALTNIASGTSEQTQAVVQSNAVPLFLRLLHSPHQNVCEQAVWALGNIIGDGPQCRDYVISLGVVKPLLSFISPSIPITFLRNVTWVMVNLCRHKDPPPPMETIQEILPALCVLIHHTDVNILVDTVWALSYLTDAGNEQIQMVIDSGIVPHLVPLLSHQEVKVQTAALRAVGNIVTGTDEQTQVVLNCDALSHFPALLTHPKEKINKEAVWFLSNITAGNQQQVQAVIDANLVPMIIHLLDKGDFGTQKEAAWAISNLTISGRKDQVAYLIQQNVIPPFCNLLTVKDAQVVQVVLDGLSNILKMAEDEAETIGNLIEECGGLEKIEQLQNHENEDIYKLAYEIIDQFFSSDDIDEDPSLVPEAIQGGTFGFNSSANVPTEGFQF
UniProt P06748: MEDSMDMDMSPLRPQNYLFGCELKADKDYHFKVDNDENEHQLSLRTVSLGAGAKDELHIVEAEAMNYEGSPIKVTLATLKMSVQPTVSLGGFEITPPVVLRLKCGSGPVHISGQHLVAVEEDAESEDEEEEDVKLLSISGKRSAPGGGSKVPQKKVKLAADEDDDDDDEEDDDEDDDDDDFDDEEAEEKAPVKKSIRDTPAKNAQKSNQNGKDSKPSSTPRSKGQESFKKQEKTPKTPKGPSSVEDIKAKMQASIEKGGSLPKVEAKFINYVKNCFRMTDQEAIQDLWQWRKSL
UniProt O43148: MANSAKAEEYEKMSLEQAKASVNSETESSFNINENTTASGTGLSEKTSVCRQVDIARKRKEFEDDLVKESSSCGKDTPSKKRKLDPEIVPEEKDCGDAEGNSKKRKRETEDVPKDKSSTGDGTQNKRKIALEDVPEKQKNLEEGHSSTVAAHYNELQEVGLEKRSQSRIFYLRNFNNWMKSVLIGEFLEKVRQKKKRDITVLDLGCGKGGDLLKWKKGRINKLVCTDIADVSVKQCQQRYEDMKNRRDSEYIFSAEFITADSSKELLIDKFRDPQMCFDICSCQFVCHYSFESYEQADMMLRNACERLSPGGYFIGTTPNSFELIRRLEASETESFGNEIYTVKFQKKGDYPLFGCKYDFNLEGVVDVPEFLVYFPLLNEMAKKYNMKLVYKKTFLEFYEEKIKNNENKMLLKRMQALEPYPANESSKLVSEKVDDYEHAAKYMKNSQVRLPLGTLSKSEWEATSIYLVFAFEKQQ
UniProt O00161: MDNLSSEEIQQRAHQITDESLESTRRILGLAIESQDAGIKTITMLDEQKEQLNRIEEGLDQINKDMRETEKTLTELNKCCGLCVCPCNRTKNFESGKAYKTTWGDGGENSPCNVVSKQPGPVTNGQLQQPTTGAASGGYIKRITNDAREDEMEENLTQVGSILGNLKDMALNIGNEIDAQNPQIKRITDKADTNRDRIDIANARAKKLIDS
UniProt O60493: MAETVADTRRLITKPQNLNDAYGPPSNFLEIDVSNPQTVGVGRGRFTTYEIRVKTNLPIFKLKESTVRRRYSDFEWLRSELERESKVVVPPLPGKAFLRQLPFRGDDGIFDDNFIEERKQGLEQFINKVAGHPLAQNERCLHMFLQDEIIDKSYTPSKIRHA
UniProt Q86WV6: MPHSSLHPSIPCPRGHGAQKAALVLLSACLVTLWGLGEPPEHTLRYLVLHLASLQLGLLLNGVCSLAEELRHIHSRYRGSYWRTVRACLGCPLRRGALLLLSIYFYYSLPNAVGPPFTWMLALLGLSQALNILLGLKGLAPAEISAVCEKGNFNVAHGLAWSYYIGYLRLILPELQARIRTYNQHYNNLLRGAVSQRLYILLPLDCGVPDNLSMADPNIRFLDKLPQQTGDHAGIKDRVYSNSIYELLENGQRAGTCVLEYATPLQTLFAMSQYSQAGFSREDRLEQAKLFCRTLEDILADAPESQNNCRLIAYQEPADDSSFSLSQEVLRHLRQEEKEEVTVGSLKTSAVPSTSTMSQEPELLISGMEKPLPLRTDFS
UniProt O75410: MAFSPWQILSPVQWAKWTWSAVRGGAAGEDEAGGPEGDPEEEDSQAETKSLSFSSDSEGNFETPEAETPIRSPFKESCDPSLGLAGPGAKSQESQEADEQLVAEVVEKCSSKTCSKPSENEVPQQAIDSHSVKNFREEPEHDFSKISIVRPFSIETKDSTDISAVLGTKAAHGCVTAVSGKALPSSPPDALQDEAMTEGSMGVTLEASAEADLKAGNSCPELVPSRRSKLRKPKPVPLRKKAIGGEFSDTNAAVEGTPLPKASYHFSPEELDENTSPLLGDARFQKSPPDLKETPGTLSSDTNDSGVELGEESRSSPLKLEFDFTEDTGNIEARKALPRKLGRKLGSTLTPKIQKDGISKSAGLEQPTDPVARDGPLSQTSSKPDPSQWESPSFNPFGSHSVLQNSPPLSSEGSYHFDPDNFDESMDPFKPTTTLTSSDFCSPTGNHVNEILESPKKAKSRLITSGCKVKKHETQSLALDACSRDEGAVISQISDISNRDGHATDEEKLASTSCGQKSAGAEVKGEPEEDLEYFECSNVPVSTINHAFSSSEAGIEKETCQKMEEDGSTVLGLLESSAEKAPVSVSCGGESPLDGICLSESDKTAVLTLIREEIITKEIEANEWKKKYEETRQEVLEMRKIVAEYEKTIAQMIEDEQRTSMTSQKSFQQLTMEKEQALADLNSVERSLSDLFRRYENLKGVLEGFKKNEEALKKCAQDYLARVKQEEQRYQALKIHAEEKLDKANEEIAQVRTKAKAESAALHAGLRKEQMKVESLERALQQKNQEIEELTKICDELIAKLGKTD

Columns and labels:
[1] = target: N-terminal Kv1.3-TurboID (V5-TurboID-Kv1.3 fusion) (human) (UniProt P22001); assay: proximity labelling; TurboID fused to Kv1.3, stably expressed in Jurkat T-cells; 200 μM biotin for 1 h; lysis in 8 M urea; biotinylated proteins enriched on streptavidin magnetic beads; label-free quantitative MS against untransduced Jurkat T-cells or between lines (>4-fold, p<0.05; n=3)
[2] = target: C-terminal Kv1.3-TurboID (Kv1.3-V5-TurboID fusion) (human) (UniProt P22001); assay: as above

**Q.** Which binding [1] does the source give for ACTN4 (from UniProt O43707 1-911) here?
**A.** binds

**Q.** For BCL2 (from UniProt P10415 1-239), which binding [1] is on record?
**A.** binds

**Q.** DDX3X (from UniProt O00571 1-662) was tested. Which binding [1] did it give?
**A.** binds

**Q.** Which binding [1] does the source give for IMPDH2 (from UniProt P12268 1-514) here?
**A.** binds

**Q.** IPO5 (from UniProt O00410 1-1097) was tested. Which binding [1] did it give?
**A.** binds

**Q.** For KAT7 (from UniProt O95251 1-611), which binding [1] is on record?
**A.** binds

**Q.** KPNA4 (from UniProt O00629 1-521) was tested. Which binding [1] did it give?
**A.** binds

**Q.** Which binding [1] does the source give for NPM1 (from UniProt P06748 1-294) here?
**A.** binds

**Q.** With RNMT (from UniProt O43148 1-476) as the molecule, how does the binding [1] read?
**A.** binds

**Q.** For SNAP23 (from UniProt O00161 1-211), which binding [1] is on record?
**A.** binds

**Q.** Which binding [1] does the source give for SNX3 (from UniProt O60493 1-162) here?
**A.** binds

**Q.** How did the binding [1] turn out when STING1 (from UniProt Q86WV6 1-379) was run?
**A.** binds

**Q.** How did the binding [1] turn out when TACC1 (from UniProt O75410 1-805) was run?
**A.** binds

B1: MYO1G (protein, UniProt B0I1T2 1-1018)
chain: MEDEEGPEYGKPDFVLLDQVTMEDFMRNLQLRFEKGRIYTYIGEVLVSVNPYQELPLYGPEAIARYQGRELYERPPHLYAVANAAYKAMKHRSRDTCIVISGESGAGKTEASKHIMQYIAAVTNPSQRAEVERVKDVLLKSTCVLEAFGNARTNRNHNSSRFGKYMDINFDFKGDPIGGHIHSYLLEKSRVLKQHVGERNFHAFYQLLRGSEDKQLHELHLERNPAVYNFTHQGAGLNMTVHSALDSDEQSHQAVTEAMRVIGFSPEEVESVHRILAAILHLGNIEFVETEEGGLQKEGLAVAEEALVDHVAELTATPRDLVLRSLLARTVASGGRELIEKGHTAAEASYARDACAKAVYQRLFEWVVNRINSVMEPRGRDPRRDGKDTVIGVLDIYGFEVFPVNSFEQFCINYCNEKLQQLFIQLILKQEQEEYEREGITWQSVEYFNNATIVDLVERPHRGILAVLDEACSSAGTITDRIFLQTLDMHHRHHLHYTSRQLCPTDKTMEFGRDFRIKHYAGDVTYSVEGFIDKNRDFLFQDFKRLLYNSTDPTLRAMWPDGQQDITEVTKRPLTAGTLFKNSMVALVENLASKEPFYVRCIKPNEDKVAGKLDENHCRHQVAYLGLLENVRVRRAGFASRQPYSRFLLRYKMTCEYTWPNHLLGSDKAAVSALLEQHGLQGDVAFGHSKLFIRSPRTLVTLEQSRARLIPIIVLLLQKAWRGTLARWRCRRLRAIYTIMRWFRRHKVRAHLAELQRRFQAARQPPLYGRDLVWPLPPAVLQPFQDTCHALFCRWRARQLVKNIPPSDMPQIKAKVAAMGALQGLRQDWGCRRAWARDYLSSATDNPTASSLFAQRLKTLQDKDGFGAVLFSSHVRKVNRFHKIRNRALLLTDQHLYKLDPDRQYRVMRAVPLEAVTGLSVTSGGDQLVVLHARGQDDLVVCLHRSRPPLDNRVGELVGVLAAHCQGEGRTLEVRVSDCIPLSHRGVRRLISVEPRPEQPEPDFRCARGSFTLLWPSR
**Q.** How did the binding [1] turn out when B1 was run?
**A.** binds

B2: TBC1D10B (protein, UniProt Q4KMP7 1-808)
chain: METGTAPLVAPPRRHGAPAAPSPPPRGSRAGPVVVVAPGPPVTTATSAPVTLVAPGEARPAWVPGSAETSAPAPAPAPAPAPAVTGSTVVVLTLEASPEAPKPQLPSGPESPEPAAVAGVETSRALAAGADSPKTEEARPSPAPGPGTPTGTPTRTPSRTAPGALTAKPPLAPKPGTTVASGVTARSASGQVTGGHGAAAATSASAGQAPEDPSGPGTGPSGTCEAPVAVVTVTPAPEPAENSQDLGSTSSLGPGISGPRGQAPDTLSYLDSVSLMSGTLESLADDVSSMGSDSEINGLALRKTDKYGFLGGSQYSGSLESSIPVDVARQRELKWLDMFSNWDKWLSRRFQKVKLRCRKGIPSSLRAKAWQYLSNSKELLEQNPGKFEELERAPGDPKWLDVIEKDLHRQFPFHEMFAARGGHGQQDLYRILKAYTIYRPDEGYCQAQAPVAAVLLMHMPAEQAFWCLVQICDKYLPGYYSAGLEAIQLDGEIFFALLRRASPLAHRHLRRQRIDPVLYMTEWFMCIFARTLPWASVLRVWDMFFCEGVKIIFRVALVLLRHTLGSVEKLRSCQGMYETMEQLRNLPQQCMQEDFLVHEVTNLPVTEALIERENAAQLKKWRETRGELQYRPSRRLHGSRAIHEERRRQQPPLGPSSSLLSLPGLKSRGSRAAGGAPSPPPPVRRASAGPAPGPVVTAEGLHPSLPSPTGNSTPLGSSKETRKQEKERQKQEKERQKQEKEREKERQKQEKEREKQEKEREKQEKERQKQEKKAQGRKLSLRRKADGPPGPHDGGDRPSAEARQDAYF
**Q.** With B2 as the molecule, how does the binding [2] read?
**A.** binds
